Measured values from article PMC13140723.
Construct, isoform or probe ends are uncertain for at least one entry. No signal at the amounts used counts as a negative.

System: CiWRKY27 (Citrus ichangensis (Ichang papeda))
Experiment: EMSA
Details: Chemiluminescent EMSA kit (Beyotime), manufacturer's procedure, pH and temperature not stated, recombinant protein, protein details: His (pHMGWA vector), label: biotin
[1] = unlabeled probe competes dose-dependently

Sequence | binding result | binding result [1]
GATCGGTAGCTACTCTTCTAAAAAATCTCCACTATCCCTC (double strand) [mutant-GSTF6-probe] | no binding | –
GCTCAATTTTTGCTTGTCAAGTTTACCGGAGACTTCATC (double strand) [RAP2.7-P4-probe] | binds | –
TCTCGCCTTTTATCTTTGACTTTTTTTTTCTTTTTTAATG (double strand) [CiCAD7-probe] | – | binds
TCTCGCCTTTTATCTAAAAAATTTTTTTTCTTTTTTAATG (double strand) [mutant-CiCAD7-probe] | no binding | –
GATCGGTAGCTACTCTTCTTTGACTTCTCCACTATCCCTC (double strand) [GSTF6-probe] | – | binds
